Data on 35 targets can be found in the supplement of paper PMC12067093, “Discovery and optimisation of a covalent ligand for TRIM25 and its application to targeted protein ubiquitination” (Chemical Science, 2025).

Compound in this assay: Cc1cc(ccc1-c1ccccc1)C(=O)N1CCCN(CC1)C(=O)CCl [compound 10]
The experiment in a line: probe-labelled cysteine peptide fold change vs DMSO (competition) (log2 fold change); higher = less target engagement (more negative = stronger competition). The following applies: THP-1, incubation time: 4 h.

This is one part of the list.
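Further: competitive profiling in live THP-1 cells: cysteine peptides tagged with an iodoacetamide desthiobiotin (IA-DTB) probe, intensity after compound treatment relative to DMSO-treated cells.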

As to “GNAI1_P63096_139_DSGVQACFNR (UniProt P63096)”, the “probe-labelled cysteine peptide fold change” value is 0.065 (10 µM) and -0.049 (50 µM).

“GNAI2_P04899_140_LWADHGVQACFGR (UniProt P04899)”: the “probe-labelled cysteine peptide fold change” value stood at 0.0426 (10 µM) and 0.0337 (50 µM).

For the target “GNL2_Q13823_336_VCNVAPIAGETK (UniProt Q13823)”, the “probe-labelled cysteine peptide fold change” value by setting is: (10 µM) -0.0796; (50 µM) -0.195.

Take “GNB4_Q9HAV0_294_LLLAGYDDFNCNVWDTLK (UniProt Q9HAV0)”: the “probe-labelled cysteine peptide fold change” value amounted to 0.0303 (10 µM) and 0.0959 (50 µM).

For the target “GOLGA4_Q13439_1862_ELDSCLVR (UniProt Q13439)”, the “probe-labelled cysteine peptide fold change” value runs as follows: (10 µM) 0.0418; (50 µM) -0.159.

As for “GNB2_P62879_204_TFVSGACDASIK (UniProt P62879)”, the “probe-labelled cysteine peptide fold change” value runs as follows: (10 µM) 0.0688; (50 µM) 0.0376.

As to “GLMP_Q8WWB7_300_ESALPCQASPLHPALAYSLPQSPIVR (UniProt Q8WWB7)”, the “probe-labelled cysteine peptide fold change” value (10 µM) amounted to 0.0408 and the “probe-labelled cysteine peptide fold change” value (50 µM) came out at 0.106.

Consider “GPD2_P43304_188_LYDLVAGSNCLK (UniProt P43304)”, for which the “probe-labelled cysteine peptide fold change” value (10 µM) is -0.32 and the “probe-labelled cysteine peptide fold change” value (50 µM) was found to be 0.426.

In the case of “GOLGB1_Q14789_2279_VCDTLQGENK (UniProt Q14789)”, the “probe-labelled cysteine peptide fold change” value (10 µM) came to 0.0962 and the “probe-labelled cysteine peptide fold change” value (50 µM) is -0.0317.

Regarding “GPATCH4_Q5T3I0_152_ILTDEMLLQACEGR (UniProt Q5T3I0)”, the “probe-labelled cysteine peptide fold change” value (10 µM) was found to be 0.13 and the “probe-labelled cysteine peptide fold change” value (50 µM) turned out to be 0.0804.

As for “GLRX_P35754_26_VVVFIKPTCPYCR (UniProt P35754)”, the “probe-labelled cysteine peptide fold change” value (10 µM) is -1.05 and the “probe-labelled cysteine peptide fold change” value (50 µM) is -3.44.

Turning to “GPS1_Q13098_175_RGHDDLGDHYLDCGDLSNALK (UniProt Q13098)”, the “probe-labelled cysteine peptide fold change” value (10 µM) was -0.0362 and the “probe-labelled cysteine peptide fold change” value (50 µM) was -0.243.

Regarding “GNAI2_P04899_287_ITHSPLTICFPEYTGANKYDEAASYIQSK (UniProt P04899)”, the “probe-labelled cysteine peptide fold change” value runs as follows: (10 µM) 0.0178; (50 µM) -0.371.

Consider “GMEB2_Q9UKD1_96_MAEEGENLEAEIVYPITCGDSR (UniProt Q9UKD1)”, for which the “probe-labelled cysteine peptide fold change” value runs as follows: (10 µM) 0.133; (50 µM) -0.027.

For the target “GPATCH8_Q9UKJ3_639_MDAPASGSACSGLNK (UniProt Q9UKJ3)”, the “probe-labelled cysteine peptide fold change” value is, setting by setting: (10 µM) -0.016; (50 µM) -0.523.

Turning to “GLG1_Q92896_659_TETGQELECLQDHLDDLVVECR (UniProt Q92896)”, the “probe-labelled cysteine peptide fold change” value is -0.38 (10 µM) and -0.0245 (50 µM).

For the target “GNE_Q9Y223_160_LAHYHVCCTR (UniProt Q9Y223)”, the “probe-labelled cysteine peptide fold change” value is, setting by setting: (10 µM) 0.148; (50 µM) 0.0426.

As to “GPBP1L1_Q9HC44_365_ENGEEGCHQNGLALPVVEEGEVLSHSLEAEHR (UniProt Q9HC44)”, the “probe-labelled cysteine peptide fold change” value is -0.536 (10 µM) and 0.0923 (50 µM).

In the case of “GLYR1_Q49A26_486_CQNILQGNFKPDFYLK (UniProt Q49A26)”, the “probe-labelled cysteine peptide fold change” value by setting is: (10 µM) -0.00766; (50 µM) 0.144.

With “GPATCH1_Q9BRR8_534_CLDPSMTEWER (UniProt Q9BRR8)”, the “probe-labelled cysteine peptide fold change” value turned out to be 0.256 (10 µM) and 0.0388 (50 µM).

For “GLG1_Q92896_542_MVEDCEHR (UniProt Q92896)”, the “probe-labelled cysteine peptide fold change” value was -0.102 (10 µM) and 0.174 (50 µM).

As for “GLYR1_Q49A26_303_CDLFIQEGAR (UniProt Q49A26)”, the “probe-labelled cysteine peptide fold change” value is -0.0399 (10 µM) and 0.00249 (50 µM).

Regarding “GLUL_P15104_183_ACLYAGVK (UniProt P15104)”, the “probe-labelled cysteine peptide fold change” value runs as follows: (10 µM) 0.0233; (50 µM) 0.35.

As to “GNPNAT1_Q96EK6_128_GRVEDVVVSDECR (UniProt Q96EK6)”, the “probe-labelled cysteine peptide fold change” value was -0.133 (10 µM) and 0.0486 (50 µM).

“GLRX_P35754_79_DCIGGCSDLVSLQQSGELLTR (UniProt P35754)”: the “probe-labelled cysteine peptide fold change” value is, setting by setting: (10 µM) -0.303; (50 µM) -0.101.

Take “GNAI2_P04899_140_RLWADHGVQACFGR (UniProt P04899)”: the “probe-labelled cysteine peptide fold change” value by setting is: (10 µM) -0.129; (50 µM) -0.253.

Turning to “GMIP_Q9P107_521_ECEAFMVSGTECEECFLTCHK (UniProt Q9P107)”, the “probe-labelled cysteine peptide fold change” value is, setting by setting: (10 µM) -0.0581; (50 µM) 0.297.

As for “GLG1_Q92896_528_SGDPMILSCLMEHLYTEK (UniProt Q92896)”, the “probe-labelled cysteine peptide fold change” value is -0.0605 (10 µM) and -0.00286 (50 µM).

“GNB1_P62873_25_ACADATLSQITNNIDPVGR (UniProt P62873)”: the “probe-labelled cysteine peptide fold change” value is 0.127 (10 µM) and -0.0757 (50 µM).

Regarding “GMFG_O60234_8_SDSLVVCEVDPELTEK (UniProt O60234)”, the “probe-labelled cysteine peptide fold change” value is -0.0128 (10 µM) and 0.148 (50 µM).

In the case of “GNB4_Q9HAV0_271_ADQELLLYSHDNIICGITSVAFSK (UniProt Q9HAV0)”, the “probe-labelled cysteine peptide fold change” value runs as follows: (10 µM) 0.0903; (50 µM) -0.00629.

Regarding “GOT2_P00505_382_KEGSTHNWQHITDQIGMFCFTGLKPEQVER (UniProt P00505)”, the “probe-labelled cysteine peptide fold change” value is, setting by setting: (10 µM) 0.106; (50 µM) 0.0175.

For “GMPS_P49915_456_VICAEEPYICK (UniProt P49915)”, the “probe-labelled cysteine peptide fold change” value is, setting by setting: (10 µM) -0.0248; (50 µM) -0.0701.

In the case of “GOPC_Q9HD26_81_MTSLSSCFAQLCHK (UniProt Q9HD26)”, the “probe-labelled cysteine peptide fold change” value (10 µM) amounted to 0.156 and the “probe-labelled cysteine peptide fold change” value (50 µM) worked out at 0.136.

In the case of “GNE_Q9Y223_183_ILLAGCPSYDK (UniProt Q9Y223)”, the “probe-labelled cysteine peptide fold change” value by setting is: (10 µM) 0.0586; (50 µM) -0.166.
